According to PMC3498133:
No constants are given. Whether binding was seen depends on the method and setting.

Target: T1, ExoU (Pseudomonas aeruginosa), O34208
T1 chain: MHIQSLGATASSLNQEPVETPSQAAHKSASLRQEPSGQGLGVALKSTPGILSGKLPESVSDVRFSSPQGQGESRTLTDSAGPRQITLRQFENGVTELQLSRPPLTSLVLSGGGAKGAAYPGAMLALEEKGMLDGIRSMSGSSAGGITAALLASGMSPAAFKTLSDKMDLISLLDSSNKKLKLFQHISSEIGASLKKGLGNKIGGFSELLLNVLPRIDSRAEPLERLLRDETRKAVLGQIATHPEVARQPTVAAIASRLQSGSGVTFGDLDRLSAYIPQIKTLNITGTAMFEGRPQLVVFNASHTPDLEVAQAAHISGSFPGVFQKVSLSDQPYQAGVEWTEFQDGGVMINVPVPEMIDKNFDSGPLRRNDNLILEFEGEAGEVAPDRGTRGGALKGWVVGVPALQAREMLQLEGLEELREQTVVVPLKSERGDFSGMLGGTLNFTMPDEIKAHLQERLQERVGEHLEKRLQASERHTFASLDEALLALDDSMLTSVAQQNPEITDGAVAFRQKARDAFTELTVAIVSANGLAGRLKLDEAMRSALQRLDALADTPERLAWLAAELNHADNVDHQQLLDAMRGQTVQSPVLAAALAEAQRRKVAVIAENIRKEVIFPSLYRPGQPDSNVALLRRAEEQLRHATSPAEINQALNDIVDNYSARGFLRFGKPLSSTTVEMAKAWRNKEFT
Assay: SEC-MALS; Superdex 200 10/300 GL, 100 µL at 2 mg/mL, 10 mM Tris-HCl pH 8.3 with 200 mM or 500 mM NaCl, 22°C; ExoU, SpcU, the co-expressed/co-purified complex and ExoU:SpcU mixtures (1:2.5 and 1:8); both purified
Details: remark: other sources report otherwise

B1: ExoU, O34208 1-687 (protein)
chain: T1 chain
binding: no binding (tested: 2 mg/mL)
